PubChem BioAssay AID686937 | Drosophila RNAi Screening Center, 2013

Test: 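Genes whose loss weakens secretory pathway function in fly cells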 (primary screen)
System: Drosophila S2 cells expressing secreted horseradish peroxidase
Reagent: long dsRNA against Drosophila genes
Duration: about 5.5 days (5 days dsRNA, then 12 h reporter induction)
Treatment: reporter expression induced after 5 days of dsRNA, read 12 h later; inducer not stated
Read-out: 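Chemiluminescent measurement of peroxidase in the medium 12 h after reporter induction, following 5 days of dsRNA, given as a z-score per plate; higher means more secretion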
Direction: z-score: higher = more reporter secreted into medium
In all, the deposit lists about 23,000 reagents; shown is a random part of those that have a named target and a result. 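Reduced-secretion tags in replicate 1 do not always agree with the z-scores; no criterion for assigning the tags was given.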 The numbers tell different reagents against one gene apart. A plus sign joins genes that one reagent is predicted to hit. Not stated in the record: the amount of reagent.

| target | reagent | z-score, replicate 1 | z-score, replicate 2 | z-score, replicate 3 | z-score, replicate 4 |
| --- | --- | --- | --- | --- | --- |
| Vinc | 1 | 0.49 | 0.21 | – | – |
| CG33155 + mRpL53 | 1 | -0.73 | -0.13 | – | – |
| Acp53C14a | 1 | 0.24 | 0.41 | – | – |
| scyl | 1 | 0.51 | 0.35 | – | – |
| Trs33 | 1 | -0.02 | -0.17 | – | – |
| Mur2B | 1 | 0.16 | 0.29 | – | – |
| Mur2B | 2 | -0.08 | 0.08 | – | – |
| lncRNA:CR9162 | 1 | 0.28 | 0.1 | – | – |
| HP1e | 1 | 0.37 | 0.54 | – | – |
| CG2931 | 1 | 0.29 | 0.54 | – | – |
| Acp76A | 1 | 0.39 | 0.2 | – | – |
| CG4563 | 1 | 0.24 | 0.23 | – | – |
| ihog | 1 | 0.35 | 0.22 | – | – |
| SK | 1 | 0.32 | 0.01 | – | – |
| SK | 2 | 0.13 | -0.48 | – | – |
| SK | 3 | 0.26 | -0.69 | – | – |
| SK | 4 | 0.49 | 0.68 | – | – |
| SK | 5 | 0.32 | -0.08 | – | – |
| SK | 6 | 1.43 | 0.75 | – | – |
| FRG1 | 1 | 0.34 | 0.21 | – | – |

Reprinted from above (6 entries):
| target | reagent | z-score, replicate 1 | z-score, replicate 2 | z-score, replicate 3 | z-score, replicate 4 |
| --- | --- | --- | --- | --- | --- |
| Trs33 | 1 | -0.02 | -0.17 | – | – |
| Mur2B | 1 | 0.16 | 0.29 | – | – |
| Mur2B | 2 | -0.08 | 0.08 | – | – |
| lncRNA:CR9162 | 1 | 0.28 | 0.1 | – | – |
| HP1e | 1 | 0.37 | 0.54 | – | – |
| CG2931 | 1 | 0.29 | 0.54 | – | – |

Next reagents follow:
| target | reagent | z-score, replicate 1 | z-score, replicate 2 | z-score, replicate 3 | z-score, replicate 4 |
| --- | --- | --- | --- | --- | --- |
| spz | 1 | 0.5 | 0.46 | – | – |
| CG42583 | 1 | -0.11 | 0.1 | – | – |
| AP-2alpha | 1 | 0.39 | 0.41 | – | – |
| CG13551 | 1 | 0.33 | 0.34 | – | – |
| Arp1 | 1 | 0.05 | 0.23 | – | – |
| CG8360 | 1 | 0.5 | 0.54 | 0.45 | 0.47 |
| CG6481 | 1 | -0.22 | -0.36 | – | – |
| CG11583 | 1 | -0.2 | -0.79 | – | – |
| Syp | 1 | -0.29 | 0.61 | – | – |
| Syp | 2 | 0.28 | 0.21 | – | – |
| dsh | 1 | 0.33 | 0.12 | – | – |
| Hacl | 1 | 0.43 | 0.11 | – | – |
| CG33181 | 1 | 0.31 | 0.5 | – | – |
| CG33181 | 2 | 0.06 | 0.46 | – | – |
